Laboratory results from patent publication US20250388907.
Results from cells or extracts need not show a direct contact. Negatives hold for the conditions tested.

Amino acid sequences for entries named in this document (tags omitted). Residues count along the entry.
UniProt P10721, 26-976: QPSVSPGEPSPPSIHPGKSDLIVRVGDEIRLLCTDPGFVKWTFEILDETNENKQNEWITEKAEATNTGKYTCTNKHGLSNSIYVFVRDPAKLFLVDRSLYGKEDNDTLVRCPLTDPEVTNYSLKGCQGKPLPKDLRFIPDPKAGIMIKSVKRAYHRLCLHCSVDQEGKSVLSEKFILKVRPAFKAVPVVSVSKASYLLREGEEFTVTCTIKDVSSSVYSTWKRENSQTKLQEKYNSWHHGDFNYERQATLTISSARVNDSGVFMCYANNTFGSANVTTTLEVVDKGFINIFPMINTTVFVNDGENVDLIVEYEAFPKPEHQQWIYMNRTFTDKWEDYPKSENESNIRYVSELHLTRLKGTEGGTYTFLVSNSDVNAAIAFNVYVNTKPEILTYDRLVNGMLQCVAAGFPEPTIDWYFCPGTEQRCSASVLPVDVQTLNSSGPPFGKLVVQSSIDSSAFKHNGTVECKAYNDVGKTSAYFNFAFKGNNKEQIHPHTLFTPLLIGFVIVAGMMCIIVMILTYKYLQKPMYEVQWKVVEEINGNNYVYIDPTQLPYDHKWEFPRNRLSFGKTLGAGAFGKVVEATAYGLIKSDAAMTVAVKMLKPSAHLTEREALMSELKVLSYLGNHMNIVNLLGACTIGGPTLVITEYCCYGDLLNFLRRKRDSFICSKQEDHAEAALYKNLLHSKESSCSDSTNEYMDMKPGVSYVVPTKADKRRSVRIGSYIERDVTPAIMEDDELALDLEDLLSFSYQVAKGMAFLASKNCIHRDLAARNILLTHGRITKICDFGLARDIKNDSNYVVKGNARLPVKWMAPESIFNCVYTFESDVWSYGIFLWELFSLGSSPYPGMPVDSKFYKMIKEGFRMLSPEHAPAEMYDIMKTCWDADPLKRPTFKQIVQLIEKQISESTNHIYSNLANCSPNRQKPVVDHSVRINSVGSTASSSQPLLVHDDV
UniProt P26951, 19-378: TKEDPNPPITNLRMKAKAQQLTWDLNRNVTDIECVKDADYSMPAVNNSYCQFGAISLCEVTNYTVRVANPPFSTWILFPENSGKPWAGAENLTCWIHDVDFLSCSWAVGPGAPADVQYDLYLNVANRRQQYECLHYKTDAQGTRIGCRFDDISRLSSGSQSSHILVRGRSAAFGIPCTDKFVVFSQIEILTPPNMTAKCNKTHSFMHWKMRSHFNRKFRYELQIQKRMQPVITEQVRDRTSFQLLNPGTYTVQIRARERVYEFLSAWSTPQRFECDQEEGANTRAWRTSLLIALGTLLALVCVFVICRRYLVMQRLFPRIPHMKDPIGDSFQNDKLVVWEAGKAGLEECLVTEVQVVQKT

Assays:
[1] = target: CD117 (c-KIT) on AML cells (Homo sapiens) (UniProt P10721); experiment: flow cytometry; details: protein on the cell surface, protein details: endogenous, KASUMI-1 and HEL92.1.7 cells, label: 5' FAM (flow cytometry), single-stranded DNA
[2] = target: CD123 (IL3RA) on AML cells (Homo sapiens) (UniProt P26951); experiment: flow cytometry; details: protein on the cell surface, protein details: endogenous, HL-60 and KASUMI-1 cells, label: 5' FAM (flow cytometry), single-stranded DNA
[3] = positive on KASUMI-1 and HEL92.1.7, negative on CD117- HL60 and MM1S
[4] = no binding to HL60 (CD117- CD123+)
[5] = no binding to HEL92.1.7 (CD117+ CD123-)
[6] = positive on HL60, negative on HEL92.1.7 and MM1S

| Sequence | binding result [1, 3] | binding result [2, 4] | binding result [1, 5] | binding result [2, 6] |
| --- | --- | --- | --- | --- |
| ATCCAGAGTGACGCAGCACCGCCCATGTCGAATAGGTGCCACGTAGGGACTTGGACACGGTGGCTTAGT [ABWT050902] | binds | no binding |  |  |
| ATCCAGAGTGACGCAGCACGAGCCTTGTGTCGTTCGGAGTGCTGGTCCACGACTACTATTGGACACGGTGGCTTAGT [ABWT050904] | binds | no binding |  |  |
| GAGGCATACCAGCTTATTCAAGGGGCCGGGGCAAGGGGGGGGTACCGTGGTAGGACATAGTAAGTGCAATCTGCGAA [#1] | binds | no binding |  |  |
| TGCGTGTGTACTGTGTCTGGTCCCGTAGCTACTAGCGAACTCCCTGCCTCTTAGGGATTTGGGCGG [CY30] |  |  | no binding | binds |
| TGCGTGTGTAGTGTGTCTGGGCTACATCGATGAGCTGCCTAGGGTCCCTCTTAGGGATTTGGGCGGG [ZW25] |  |  | no binding | binds |
